From US8618173B2, “Insecticidal compounds” (Syngenta Crop Protection, LLC, priority 2007, dated 2013)
Some results were stated once for a whole list of compounds, not compound by compound.

Experiments:
Type in all cases: in vivo
Plutella xylostella = Plutella xylostella (diamond back moth) larvae test on artificial diet; settings: for damage to the test organisms (Plutella xylostella): same protocol, 200 ppm (18 ppm in well), 6 days
Spodoptera littoralis = Spodoptera littoralis (Egyptian cotton leafworm) leaf disc spray test; settings: for control of Spodoptera littoralis: cotton leaf discs sprayed at 200 ppm, mortality, feeding behavior and growth regulation 3 days after treatment; for damage to the test organisms (Spodoptera littoralis): same protocol, 200 ppm, 3 DAT
Heliothis virescens = Heliothis virescens (tobacco budworm) egg test on artificial diet; settings: for damage to the test organisms (Heliothis virescens): same protocol, 200 ppm (18 ppm in well), 4 days
Diabrotica balteata = Diabrotica balteata (corn root worm) larvae test on artificial diet; settings: same protocol, 200 ppm (18 ppm in well), 5 days

Row | SMILES | control of Plutella xylostella (Plutella xylostella; artificial diet, 200 ppm (concentration in well 18 ppm), L2 larvae, larval mortality and growth regulation after 6 days) | control of Spodoptera littoralis (Spodoptera littoralis) | damage to the test organisms (Heliothis virescens) (Heliothis virescens) | damage to the test organisms (Plutella xylostella) (Plutella xylostella) | damage to the test organisms (Spodoptera littoralis) (Spodoptera littoralis) | damage to the test organisms (Diabrotica balteata) (Diabrotica balteata) | control of Heliothis virescens (Heliothis virescens; eggs on artificial diet, 200 ppm (concentration in well 18 ppm), egg mortality, larval mortality and growth regulation after 4 days)
1 | N#Cc1ccc(C(=O)Nc2cccc(C(=O)Nc3c(Br)cc(C(O)(c4cc(Cl)cc(Cl)c4)C(F)(F)F)cc3Br)c2)cc1 (centres unmarked) [Compound A23, 3-[(4-cyanobenzoyl)-amino]-N-{2,6-dibromo-4-[1-(3,5-dichloro-phenyl)-2,2,2-trifluoro-1-hydroxy-ethyl]-phenyl}-benzamide] | at least 80% | at least 80% |  |  |  |  | 
2 | COc1ccc(C(O)(c2cc(C)c(NC(=O)c3cccc(NC(=O)c4cccc(F)c4F)c3)c(C)c2)C(F)(F)F)cc1 (centres unmarked) [Compound A5] |  |  | little or no damage | little or no damage | little or no damage | little or no damage | 
3 | Cc1cc(C(O)(c2ccc(F)cc2)C(F)(F)F)cc(C)c1NC(=O)c1cccc(NC(=O)c2ccnc(Cl)c2)c1 (centres unmarked) [Compound A4] |  |  | little or no damage | little or no damage | little or no damage | little or no damage | 
4 | Cc1cc(C(O)(c2ccc(Cl)cc2)C(F)(F)F)cc(C)c1NC(=O)c1cccc(NC(=O)c2ccnc(Cl)c2)c1 (centres unmarked) [Compound A3] |  |  | little or no damage | little or no damage | little or no damage | little or no damage | 
5 | COc1ccc(C(O)(c2cc(C)c(NC(=O)c3cccc(NC(=O)c4ccccc4)c3)c(C)c2)C(F)(F)F)cc1 (centres unmarked) [Compound A17] |  |  | little or no damage | little or no damage | little or no damage | little or no damage | 
6 | COc1ccc(C(O)(c2cc(C)c(NC(=O)c3cccc(NC(=O)c4ccnc(Cl)c4)c3)c(C)c2)C(F)(F)F)cc1 (centres unmarked) [Compound A1] |  |  | little or no damage | little or no damage | little or no damage | little or no damage | 
7 | Cc1cc(C(O)(c2ccccc2)C(F)(F)F)cc(C)c1NC(=O)c1cccc(NC(=O)c2ccc(F)cc2)c1 (centres unmarked) [Compound A16] |  |  | little or no damage | little or no damage | little or no damage | little or no damage | 
8 | Cc1cc(C(O)(c2cccc(F)c2)C(F)(F)F)cc(C)c1NC(=O)c1cccc(NC(=O)c2ccc(F)cc2)c1 (centres unmarked) [Compound A15] |  |  | little or no damage | little or no damage | little or no damage | little or no damage | 
9 | Cc1cc(C(O)(c2ccc(F)cc2)C(F)(F)F)cc(C)c1NC(=O)c1cccc(NC(=O)c2ccccc2)c1 (centres unmarked) [Compound A20, 3-benzoylamino-N-{2,6-dimethyl-4-[2,2,2-trifluoro-1-(4-fluoro-phenyl)-1-hydroxy-ethyl]-phenyl}-benzamide] |  | at least 80% |  |  |  |  | at least 80%
10 | COc1ccc(C(O)(c2cc(C)c(NC(=O)c3cccc(NC(=O)c4ccc(F)cc4)c3)c(C)c2)C(F)(F)F)cc1 (centres unmarked) [Compound A11] |  |  | little or no damage | little or no damage | little or no damage | little or no damage | 
11 | Cc1cc(C(O)(c2cccc(F)c2)C(F)(F)F)cc(C)c1NC(=O)c1cccc(NC(=O)c2cccc(F)c2F)c1 (centres unmarked) [Compound A9] |  |  | little or no damage | little or no damage | little or no damage | little or no damage | 
12 | Cc1cc(C(O)(c2cccc(F)c2)C(F)(F)F)cc(C)c1NC(=O)c1cccc(NC(=O)c2ccccc2)c1 (centres unmarked) [Compound A21] |  |  | little or no damage | little or no damage | little or no damage | little or no damage | 
